This is one part of the list. The exact form of the protein is not confirmed.

The assay has as its target T1, ETV4 (UniProt P43268).
T1 sequence: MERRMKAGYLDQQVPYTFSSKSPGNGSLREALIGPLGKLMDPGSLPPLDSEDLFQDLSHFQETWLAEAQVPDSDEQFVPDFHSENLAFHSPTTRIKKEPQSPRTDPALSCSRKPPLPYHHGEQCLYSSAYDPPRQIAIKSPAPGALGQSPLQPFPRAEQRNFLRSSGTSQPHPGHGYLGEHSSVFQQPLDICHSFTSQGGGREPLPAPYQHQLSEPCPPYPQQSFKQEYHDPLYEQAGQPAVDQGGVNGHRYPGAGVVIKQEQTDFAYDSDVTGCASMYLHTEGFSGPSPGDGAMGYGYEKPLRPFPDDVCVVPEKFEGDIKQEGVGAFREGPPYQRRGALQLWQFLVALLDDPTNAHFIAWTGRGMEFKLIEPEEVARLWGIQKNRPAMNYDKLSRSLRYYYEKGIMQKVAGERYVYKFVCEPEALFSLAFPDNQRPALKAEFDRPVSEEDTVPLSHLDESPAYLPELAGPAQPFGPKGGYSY
Nature of the assay: DAPPL (digital affinity profiling via proximity ligation, sequencing). Conditions: 10 mM Tris-HCl pH 7.5, 50 mM NaCl, 1 mM DTT, 4% glycerol, room temperature, 30 min; GST-TFs on glutathione beads, 16-mer random dsDNA library, 0.1% …; high values mean tight binding; double strand, one strand shown; scale: fold enrichment (6-mer frequency, TF over GST control).
The sequence ATAATC registered a binding signal of 1.15.

CTAGTA: the binding signal worked out at 1.09.

With ACTGTT, the binding signal stood at 1.08.

Consider CGCTAT, for which the binding signal came to 1.08.

CTGAAC yielded a binding signal of 1.34.

ACTCAC: the binding signal was determined as 1.28.

For the sequence TGACGC, the binding signal was found to be 1.16.

The sequence CCTCGA registered a binding signal of 1.31.

Consider GCAATT, for which the binding signal was 1.15.

Turning to CTGTTC, the binding signal is 1.28.

As to TCAAGG, the binding signal was 0.966.

Turning to TCACAA, the binding signal worked out at 1.15.

TGATCC gave a binding signal of 1.29.

On to GTTTAT, for which the binding signal was determined as 1.03.

GTTGAC displayed a binding signal of 1.25.

Take CCCCGC: the binding signal was determined as 1.13.

In turn, TGCACC returned a binding signal of 1.28.

AAAGCT: the binding signal stood at 1.04.

For the sequence TGGGAT, the binding signal was found to be 1.13.

On to TCATGT, for which the binding signal was 1.13.

As to TACTAT, the binding signal came out at 1.31.

CGAATC showed a binding signal of 1.1.

TACTGT gave a binding signal of 1.15.

ATGTTG: the binding signal came to 1.17.

Consider GTCTCC, for which the binding signal is 1.46.

Turning to TCTTGG, the binding signal was determined as 1.29.

The sequence TCCATG showed a binding signal of 1.16.

AAGATC gave a binding signal of 1.

The sequence AAGACT had a binding signal of 1.11.

The sequence AAGCTT yielded a binding signal of 1.35.

TGTTTT came in with a binding signal of 1.34.

With ATCCAC, the binding signal stood at 1.21.

TCCTGA gave a binding signal of 1.47.

AAGTTC had a binding signal of 1.5.

For the sequence CAAGAT, the binding signal was 0.954.

TGTCAC registered a binding signal of 1.16.

In turn, CATCTC showed a binding signal of 1.35.

Take CCGAGC: the binding signal was 1.2.

In turn, TCCGTC registered a binding signal of 1.28.

Take CCTTTG: the binding signal stood at 1.39.

The values are drawn from paper PMC7862700.
